PubChem BioAssay AID1159578, Peter MacCallum Cancer Centre, 2015
This is an unselected part of about 18,000 deposited reagents. Over the whole deposit, about 1,030 (5.7%) are marked active. 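Inactive calls also include pools with fewer than 3300 nuclei, whose migration was not assessed.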 Raw values vary from plate to plate and are shown uncorrected. Entries without a mark were called inactive. Not all columns of the deposit are shown.

- Aim: 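Genome-wide hunt for genes controlling movement of lymphatic endothelial cells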 (primary screen)
- System: human lymphatic endothelial cells
- Reagent: siRNA pool against human genes, 40 nM
- Time to read-out: 48 h after transfection
- Read-out: 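High-content imaging of dye-stained cells in a scratch assay measures filled wound area and nuclei per well; duplicate means given as ratio to mock and robust z-score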
- Direction: migration robust z-score: higher = faster migration into the scratch; nuclei per well: higher = more cells in the well
- Call rule: 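Pools averaging fewer than 3300 nuclei are never called; remaining pools count as changed when migration robust z lies outside -2 to 2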
- Calls: active = migration changed; inactive = no migration change, or too few cells

What is on record for NSDHL [SID255357365]?
migration robust z-score: -0.78; nuclei per well, duplicate mean: 5476

Which result is listed for LILRB5 [SID255355505]?
migration robust z-score: 0.72; nuclei per well, duplicate mean: 5564

What did the screen give for H1-6 [SID255350128]?
migration robust z-score: -0.2; nuclei per well, duplicate mean: 5565

For CHD6 [SID255361230], what does the deposit list?
migration robust z-score: 0.26; nuclei per well, duplicate mean: 6102

For NUDT5 [SID255355646], what does the deposit list?
migration robust z-score: 0.46; nuclei per well, duplicate mean: 5406

What is on record for SREBF1 [SID255352622]?
migration robust z-score: -0.84; nuclei per well, duplicate mean: 5672

Which result is listed for INKA2 [SID255358959]?
migration robust z-score: -3.38; nuclei per well, duplicate mean: 2696

What is on record for C16orf78 [SID255362598]?
migration robust z-score: -0.06; nuclei per well, duplicate mean: 6315

How did the screen score INO80D [SID255358247]?
migration robust z-score: 0.06; nuclei per well, duplicate mean: 5381

What is on record for MRGPRX4 [SID255362419]?
migration robust z-score: -0.31; nuclei per well, duplicate mean: 5140

For SHANK2 [SID255355891], what was measured?
migration robust z-score: -1.27; nuclei per well, duplicate mean: 4700

How did the screen score NGEF [SID255356461]?
migration robust z-score: -0.16; nuclei per well, duplicate mean: 5678

For LGALS8 [SID255350751], what does the deposit list?
migration robust z-score: -1.27; nuclei per well, duplicate mean: 5452

What is on record for LARP4B [SID255356052]?
migration robust z-score: 0.66; nuclei per well, duplicate mean: 5235

What did the screen give for LACRT [SID255361781]?
migration robust z-score: 0.48; nuclei per well, duplicate mean: 6552

With TBX4 [SID255354320], what was measured?
migration robust z-score: -0.05; nuclei per well, duplicate mean: 4004

How did the screen score C1R [SID255348603]?
migration robust z-score: -1.56; nuclei per well, duplicate mean: 5398

With HMGN4 [SID255355108], what was measured?
migration robust z-score: -2.06 (active); nuclei per well, duplicate mean: 3300

What did the screen give for ZNF582 [SID255363354]?
migration robust z-score: 0.06; nuclei per well, duplicate mean: 5170

With KRTAP21-1 [SID255364973], what does the deposit list?
migration robust z-score: -2.04 (active); nuclei per well, duplicate mean: 4732

With CARINH [SID255365931], how do the results read?
migration robust z-score: 1.16; nuclei per well, duplicate mean: 7436

Not a retest: 2 of the entries above.
LACRT [SID255361781]: migration robust z-score = 0.48; nuclei per well, duplicate mean = 6552
TBX4 [SID255354320]: migration robust z-score = -0.05; nuclei per well, duplicate mean = 4004
